Measurements: publication PMC9508819, “Rbp95 binds to 25S rRNA helix H95 and cooperates with the Npa1 complex during early pre-60S particle maturation”
No constants are given. Whether binding was seen depends on the method and setting. Binding seen in cells or lysates may run through a third protein. A yes stands for co-enrichment or nearness to the bait. Other partners may have been found.

Chains of the proteins cited; added tags and fusions are not shown.
UniProt P14126: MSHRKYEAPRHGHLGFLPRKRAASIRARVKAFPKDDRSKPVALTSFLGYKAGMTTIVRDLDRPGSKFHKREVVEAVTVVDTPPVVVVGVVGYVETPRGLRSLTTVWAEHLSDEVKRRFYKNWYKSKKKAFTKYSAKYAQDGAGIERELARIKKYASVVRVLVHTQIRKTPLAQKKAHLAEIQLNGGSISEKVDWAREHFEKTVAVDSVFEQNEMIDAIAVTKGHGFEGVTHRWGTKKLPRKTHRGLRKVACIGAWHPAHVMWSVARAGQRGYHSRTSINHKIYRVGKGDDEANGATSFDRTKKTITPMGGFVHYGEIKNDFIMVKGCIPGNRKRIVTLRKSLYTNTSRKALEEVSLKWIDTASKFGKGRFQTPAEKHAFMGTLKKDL

T1: Rbp95-TAP (S. cerevisiae) (UniProt P25617)
T1 sequence: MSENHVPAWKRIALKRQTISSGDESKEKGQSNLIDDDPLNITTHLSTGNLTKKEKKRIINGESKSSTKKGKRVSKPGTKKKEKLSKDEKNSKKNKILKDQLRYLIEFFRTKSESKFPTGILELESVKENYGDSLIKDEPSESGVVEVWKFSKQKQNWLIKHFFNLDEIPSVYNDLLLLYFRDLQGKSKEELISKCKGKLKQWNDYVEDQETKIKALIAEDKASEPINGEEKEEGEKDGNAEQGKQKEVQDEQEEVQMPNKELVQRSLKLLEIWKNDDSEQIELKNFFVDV

T2: Rbp95-TurboID (S. cerevisiae) (UniProt P25617)
T2 sequence: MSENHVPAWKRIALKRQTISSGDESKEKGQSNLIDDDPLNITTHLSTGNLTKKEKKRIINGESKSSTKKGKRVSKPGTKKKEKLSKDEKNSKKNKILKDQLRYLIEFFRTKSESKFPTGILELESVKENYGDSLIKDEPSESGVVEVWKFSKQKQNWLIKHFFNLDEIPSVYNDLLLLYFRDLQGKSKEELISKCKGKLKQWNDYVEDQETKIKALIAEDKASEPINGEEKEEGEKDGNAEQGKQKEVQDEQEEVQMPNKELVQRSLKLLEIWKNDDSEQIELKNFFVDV

T3: Noc2-TAP (S. cerevisiae) (UniProt P39744)
T3 sequence: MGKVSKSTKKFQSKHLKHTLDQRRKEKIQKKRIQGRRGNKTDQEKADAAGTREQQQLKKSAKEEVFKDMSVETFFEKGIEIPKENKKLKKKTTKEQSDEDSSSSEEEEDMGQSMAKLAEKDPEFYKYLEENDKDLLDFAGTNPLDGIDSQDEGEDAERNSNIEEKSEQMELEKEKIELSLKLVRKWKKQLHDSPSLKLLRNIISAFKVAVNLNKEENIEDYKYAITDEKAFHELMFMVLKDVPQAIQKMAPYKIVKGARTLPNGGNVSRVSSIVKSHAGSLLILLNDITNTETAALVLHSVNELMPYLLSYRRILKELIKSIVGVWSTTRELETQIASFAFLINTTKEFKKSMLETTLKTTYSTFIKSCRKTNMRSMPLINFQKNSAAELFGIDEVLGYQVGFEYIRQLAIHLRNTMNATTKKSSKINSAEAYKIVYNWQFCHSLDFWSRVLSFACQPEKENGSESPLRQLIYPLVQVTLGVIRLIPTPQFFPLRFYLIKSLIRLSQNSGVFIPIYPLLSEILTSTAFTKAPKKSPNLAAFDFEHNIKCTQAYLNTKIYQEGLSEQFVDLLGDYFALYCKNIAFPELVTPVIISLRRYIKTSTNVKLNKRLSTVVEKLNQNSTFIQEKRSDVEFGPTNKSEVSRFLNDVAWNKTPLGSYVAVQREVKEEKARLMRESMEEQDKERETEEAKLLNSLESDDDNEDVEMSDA

T4: Npa1-TurboID (S. cerevisiae), P34241
T4 chain: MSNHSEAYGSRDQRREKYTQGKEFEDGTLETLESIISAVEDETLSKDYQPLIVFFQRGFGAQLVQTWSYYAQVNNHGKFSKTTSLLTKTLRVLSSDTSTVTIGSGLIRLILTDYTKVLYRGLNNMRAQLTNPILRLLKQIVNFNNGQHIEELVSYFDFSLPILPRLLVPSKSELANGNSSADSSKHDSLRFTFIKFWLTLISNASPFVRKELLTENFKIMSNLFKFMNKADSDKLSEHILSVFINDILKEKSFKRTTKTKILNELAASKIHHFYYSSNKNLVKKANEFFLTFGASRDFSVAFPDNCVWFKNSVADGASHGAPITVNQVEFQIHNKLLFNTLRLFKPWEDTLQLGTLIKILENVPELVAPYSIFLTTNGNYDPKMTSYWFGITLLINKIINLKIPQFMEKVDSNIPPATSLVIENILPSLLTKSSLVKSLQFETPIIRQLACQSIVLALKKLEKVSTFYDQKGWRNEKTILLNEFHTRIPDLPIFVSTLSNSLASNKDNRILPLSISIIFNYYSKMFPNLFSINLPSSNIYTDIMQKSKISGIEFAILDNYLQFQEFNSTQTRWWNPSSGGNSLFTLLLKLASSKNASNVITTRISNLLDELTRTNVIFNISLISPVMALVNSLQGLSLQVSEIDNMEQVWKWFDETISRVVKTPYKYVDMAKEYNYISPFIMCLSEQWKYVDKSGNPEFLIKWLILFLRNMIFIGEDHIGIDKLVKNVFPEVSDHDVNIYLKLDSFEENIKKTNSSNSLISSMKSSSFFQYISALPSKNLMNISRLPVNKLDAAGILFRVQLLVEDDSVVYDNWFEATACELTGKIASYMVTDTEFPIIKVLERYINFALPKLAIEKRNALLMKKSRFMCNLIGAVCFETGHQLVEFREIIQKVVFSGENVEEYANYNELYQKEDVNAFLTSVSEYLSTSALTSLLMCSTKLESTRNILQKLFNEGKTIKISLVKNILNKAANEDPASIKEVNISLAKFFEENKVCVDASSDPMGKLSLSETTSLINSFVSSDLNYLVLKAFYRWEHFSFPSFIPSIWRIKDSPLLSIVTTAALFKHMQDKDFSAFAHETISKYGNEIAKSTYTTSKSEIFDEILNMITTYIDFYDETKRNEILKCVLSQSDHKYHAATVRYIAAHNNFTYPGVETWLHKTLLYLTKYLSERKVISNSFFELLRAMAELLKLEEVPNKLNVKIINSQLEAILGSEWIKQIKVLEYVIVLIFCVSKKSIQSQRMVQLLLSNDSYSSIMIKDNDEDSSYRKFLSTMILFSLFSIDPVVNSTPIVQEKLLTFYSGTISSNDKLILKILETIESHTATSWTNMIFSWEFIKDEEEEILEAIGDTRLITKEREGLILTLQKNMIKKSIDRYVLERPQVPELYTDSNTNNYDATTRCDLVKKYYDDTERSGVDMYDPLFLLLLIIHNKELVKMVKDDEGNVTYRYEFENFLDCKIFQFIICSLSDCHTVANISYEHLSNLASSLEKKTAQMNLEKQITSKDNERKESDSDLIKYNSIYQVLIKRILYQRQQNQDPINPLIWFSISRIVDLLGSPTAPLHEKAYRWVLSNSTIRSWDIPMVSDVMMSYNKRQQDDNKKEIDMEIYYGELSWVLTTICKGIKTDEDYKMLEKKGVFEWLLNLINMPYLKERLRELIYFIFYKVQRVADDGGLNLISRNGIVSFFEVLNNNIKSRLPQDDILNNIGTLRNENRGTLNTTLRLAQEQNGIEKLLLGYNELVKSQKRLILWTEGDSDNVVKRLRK


What was measured:
[1] = biological target: Npa1-TurboID (S. cerevisiae) (UniProt P34241); experiment: proximity labelling; TurboID: C-terminally TurboID-tagged bait from the CUP1 promoter in yeast, 500 uM copper sulfate and biotin for 1 h; biotinylated proteins purified on streptavidin agarose, LC-MS/MS; enrichment against NLS-GFP-TurboID control
[2] = biological target: T1, Rbp95-TAP (S. cerevisiae); experiment: affinity purification with mass spectrometry; tandem-affinity purification from yeast lysate, elution from Calmodulin Sepharose with 0.8% ammonium hydroxide; label-free semi-quantitative LC-MS/MS (LFQ, MaxQuant); for Figure 8A, B from wild-type and Δrbp95 strains
[3] = biological target: T2, Rbp95-TurboID (S. cerevisiae); experiment: proximity labelling; TurboID: C-terminally TurboID-tagged bait from the CUP1 promoter in yeast, 500 uM copper sulfate and biotin for 1 h; biotinylated proteins purified on streptavidin agarose, LC-MS/MS; enrichment against NLS-GFP-TurboID control
[4] = biological target: Rpl3-TurboID (S. cerevisiae) (UniProt P14126); experiment: as above
[5] = biological target: T3, Noc2-TAP (S. cerevisiae); experiment: affinity purification with mass spectrometry; tandem-affinity purification from yeast lysate, elution from Calmodulin Sepharose with 0.8% ammonium hydroxide; label-free semi-quantitative LC-MS/MS (LFQ, MaxQuant); for Figure 8A, B from wild-type and Δrbp95 strains
[6] = biological target: T4, Npa1-TurboID (S. cerevisiae), P34241; experiment: proximity labelling; TurboID: C-terminally TurboID-tagged bait from the CUP1 promoter in yeast, 500 uM copper sulfate and biotin for 1 h; biotinylated proteins purified on streptavidin agarose, LC-MS/MS; enrichment against NLS-GFP-TurboID control; details: remark: other sources report otherwise

Binder	binding [1]	binding [2]	binding [3]	binding [4]	binding [5]	binding [6]
Rsa3 (protein, UniProt Q05942 1-220) MSAGDISAINIKSVKKNRRRKKRRTADVSSSDSSSSDPSSESEKEEIQNGAIEEHVGENGKSDHVFSKGNDEDKQEDIAIEVSDVELTDEESKDLKLNSKEVIDDLTKISLSKIPEPTKSQNKEGFMNASKIAENIKLAREEYNELAENFVPKGKDKTKLREEYLNLLFENYGDDINRLRAAPDFTNKSLSILADALQEGIGMFDIGELELVLKNKEMEN	binds	binds				
Nop8 (protein, UniProt Q08287 1-484) MDSVIQKRIFVGNIFHNADDCYSELLDRFGKFGDCQDFQFEKHNHFAFIDIRFNDEADFNKLRKSFNNVKFKGNILKVDEAKPNWESTWAVQHAKDLKEDIILNAKMKKKNWQHYKKMENVAKSWKDHKEVIAGRMREAPRKRSQLRNITFRINVNGSLKVYKCYKTKLWGYERNKELNDLVYKFTNNFWKNGYNHIVDRLDYSRAVKTVRFKNGLKQLTVSKDENVCSGEMDSDENMSEEEKEKNNVILNDLLKDFDFDKPMTLNDSDEELLTEQRKGEEEEEEEEEKEVNAPEYENVNKTKDQSTLPQEKPEERKEQDEGDGQEDNEFIPTFTKEIGQGTISNTETLRNLFNPNEAEPVSQFKLIEDSDNDIDHAKDVDVNQLEEEVSKSSDTLGLTSAPVPHVSRDKDNKNFLFFPHLQSPFLVGQTQLSKVRAPGRETMLSNWDEEFWANRGNWTRDMRRKMKDALKHRKRKQSKSGLLL	binds	binds	binds			
Ssf1 (protein, UniProt P38789 1-453) MAKRRQKKRTHAQLTPEQEQGIPKSMVIRVGQTSLANHSLNQLVKDFRQIMQPHTAIKLKERKSNKLKDFVVMCGPLGVTHLFMFTQSEKTGNVSLKIARTPQGPTVTFQVLDYSLGRDIKKFLKRPKSLNNDDVLNPPLLVLNGFSTSKRSGEDDQDVNVEKVIVSMFQNIFPPLNPARTSLNSIKRVFMINKDRETGEISMRHYFIDIREVEISRNLKRLYKAKNNLSKTVPNLHRKEDISSLILDHDLGAYTSESEIEDDAIVRVVDNQDVKAKHSQSLKSQRTPVEKKDNKEREKETEEEDVEMEEPKPSENLQPTPRKKAIKLTELGPRLTLKLVKIEEGICSGKVLHHEFVQKSSEEIKALEKRHAAKMRLKEQRKKEQEENIAKKKAVKDAKKQRKLERRKARAAEGGEGQGKDDAMSDDESSSSDSEHYGSVPEDLDSDLFSEVE			binds	binds	binds	
Rbp95 (Ycr016w) (protein, UniProt P25617 1-290) MSENHVPAWKRIALKRQTISSGDESKEKGQSNLIDDDPLNITTHLSTGNLTKKEKKRIINGESKSSTKKGKRVSKPGTKKKEKLSKDEKNSKKNKILKDQLRYLIEFFRTKSESKFPTGILELESVKENYGDSLIKDEPSESGVVEVWKFSKQKQNWLIKHFFNLDEIPSVYNDLLLLYFRDLQGKSKEELISKCKGKLKQWNDYVEDQETKIKALIAEDKASEPINGEEKEEGEKDGNAEQGKQKEVQDEQEEVQMPNKELVQRSLKLLEIWKNDDSEQIELKNFFVDV	binds			binds		
Npa2, P47108 1-1174 (protein) MGDLTEELSIPDNAQDLSKLLRSTSTKPHQIAEIVSKFDKLETYFPKKEIFVLDLLIDRLNNGNLDDFKTSEHTWIIFTRLLDAINDPISIKKLLKKLKTVPVMIRTFFLWPKDKLLTRSVSFIKAFFAINDYLIVNFSVEESFQLLEHAINGLSSCPTTDFALSYLQDACNLTHVDNITTTDNKIATCYCKHMLLPSLRYFAQTKNSASSNQSFIRLSHFMGKFLLQPRIDYMKLNKKFVQENASEITDDMAYYYFATFVTFLSKDNFAQLEVIFTILGAKKPSLECRFLNLLSESKKTVSQEFLEALLLEMLASTDESGVLSLIPIILKLDIEVAIKHIFRLLELIQLENLNDPLFSSHIWDLIIQSHANARELSDFFAKINEYCSRKGPDSYFLINHPAYVKSITKQLFTLSSLQWKNLLQALLDQVNHDSTNRVPLYLIRICLEGLSEGASRATLDEVKPILSQVFTLESFNNSLQWDLKYHIMEVYDDIVPAEELEKIDYVLSSNIFDTTSADVEELFFYCFKLREYISFDLSDAKKKFMRHFEILDEERKSNLSYSVVSKFATLVNNNFTREQISSLIDSLLLNSTNLSSLLKNDDIFEETNITYALINKLASSYHQTFALEALIQIPIQCINKNVRVALINNLTCESFCLDSATRECLLHLLSSPTFKSNIETNFYELCEKTIMSPEMAISETGDEKKEIEDKISIFEKVWTNHLSQAKEPVSEKFLESGYDIVKQSMSLSNGDSKLIIAGFTIAKFLKPDNKHRDIQGMAISYAVKILENYSENFESETIPLFRISMSTLYKIITTGQGDISKHKSRILDIFSKIMLRYHSKKVYHAPEEQEMFLVHSLLTENKLEYIFAEYLNIEHTDKCDSALGFCLEESLKQGPDAFNRLLWNSAKSFSTISQPCAEKFVRVFIIMSKRIARDNNLGHHLFVIALLEAYTYCDIEKFGYKSYLLLFNAIKEFLVSKPWLFSQYCIEMLLPFCLKTLAFIVNHESTDEINEGFINIIEVIDHMLLVHRFKFSNRHHLFNSVLCQILEIIAIHDGTLCANSADAVARLITNYCEPYNVSNAQNGQKNNLSSKISLIKQSIRKNVLVVLTKYIQLSITTQFSLNIKKSLQPGIHAIFDILSQNELNQLNAFLDTPGKQYFKALYLQYKKVGKWRED						binds
